Consider 57 molecules from PubChem BioAssay AID2685 (National Center for Advancing Translational Sciences (NCATS), 2010).

One may read the AC50 as the concentration at which the activity in the assay is half-maximal. A low value points to activity at low concentration.

The other results are listed elsewhere or left out. The main result of the screen is listed elsewhere. These columns were measured beside it and carry no call. Compounds called inactive in the main read-out are mostly missing here. Words in brackets tell the shape of the fitted curve; partial curves, single points and poor fits give uncertain potencies.

This assay is described as follows: qHTS Assay for Lipid Storage Modulators in Drosophila S3 Cells.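 On cell number change: cells counted by Cell Tracker Red CMTPX staining in the red channel.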 The settings on record: BODIPY lipid droplet fluorescence, 18-24 h; for cell number change: measured here: cell count max response, cells fed with added oleic acid. In outline:
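Laser-scanning cytometry quantifies lipid droplet accumulation (500–530 nm total intensity; droplet/cell object ratio) in oleic acid-fed (400 uM added) Drosophila S3 cells treated with a concentration series. 20 uM Triacsin C defined 100% inhibition.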
(qHTS replaces the single test concentration by a dilution series.)

Setting [1] is: measured here: cell number channel AC50, cells fed with added oleic acid.
Where [2] appears, read: measured here: lipid fluorescence (Fed channel) AC50, cells fed with added oleic acid.

In the case of `Cc1ccc(S(=O)(=O)NC(=O)Nc2cc(C)no2)cc1`, the cell number change was -28.5%. Also, the AC50 under setting [1] is 0.206 µM [falling, full curve, poor fit]. The half-maximal activity concentration (AC50) under setting [2] was 20.6 µM [falling, single point].

On to `CCCn1nc(C(=O)N2CCc3ccccc32)c2ccccc2c1=O`, for which the cell number change was -12.8%. Moreover, the AC50 under setting [2] is 6.51 µM [falling, full curve].

As to `COc1ccc(C(=O)OCc2nc(N)nc(Nc3ccccc3C)n2)cc1OC`, the cell number change turned out to be 9.6%. The concentration at half-maximal activity (AC50) under setting [2] was 0.0184 µM [rising, single point].

Consider `Cc1n[nH]c(C)c1CCN(C)C(=O)C1CCC(=O)N(CC2CCCCC2)C1` (stereo not drawn), for which the cell number change is 15.3%. Also, the AC50 under setting [2] is 18.4 µM [rising, single point].

As for `N#Cc1ccc(S(=O)(=O)N2CCCN(c3nc4ccc(Cl)cc4s3)CC2)cc1`, the cell number change was 9.78%. In addition, the concentration at half-maximal activity (AC50) under setting [2] is 6.51 µM [falling, single point].

Turning to `Cc1ccc(S(=O)(=O)Oc2ccc(/C=N/NC(=O)c3ccncc3)cc2)cc1`, the cell number change amounted to 35.5%. The AC50 under setting [2] was 0.562 µM [rising, single point].

As for `CCN(CC)CCCN1C(=O)C(O)=C(C(=O)c2cc3ccccc3o2)C1c1ccccn1` (stereo not drawn), the cell number change is 56%. For the same molecule, the concentration at half-maximal activity (AC50) under setting [1] was 29.1 µM [rising, single point]. Also, the AC50 under setting [2] is 29.1 µM [rising, single point].

Consider `CCOC(=O)N1CCC(Nc2c(N3CCN(c4cc(Cl)ccc4C)CC3)c(=O)c2=O)CC1`, for which the cell number change is -41.2%. Moreover, the AC50 under setting [1] is 29.1 µM [falling, single point]. Further, the half-maximal activity concentration (AC50) under setting [2] was 29.1 µM [falling, single point].

For the molecule `COc1ccc(-c2noc(CCCOc3ccc(Cl)cc3Cl)n2)cc1`, the cell number change was -1.41%.

Consider `CC1CN(c2cc(-c3ccccc3)c3ccccc3n2)CC(C)O1` (stereo not drawn), for which the cell number change came to 13.7%. Under setting [2], the AC50 was 0.082 µM [falling, full curve, poor fit].

As for `O=[N+]([O-])c1cc(Cl)ccc1Oc1ccc(-c2nnco2)cc1`, under setting [2], the AC50 was 0.00411 µM [falling, full curve, poor fit].

Regarding `O=C(NC(Cc1c[nH]c2ccccc12)C(=O)Nc1ccc(OC(F)(F)F)cc1)c1cccs1` (stereo not drawn), the cell number change was -9.62%.

As for `O=Cc1ccccc1-c1cn(CN2C(=O)c3ccccc3C2=O)nn1`, the cell number change amounted to 30.1%. For the same molecule, the concentration at half-maximal activity (AC50) under setting [1] was 1.46 µM [rising, full curve, poor fit]. Under setting [2], the AC50 was 0.58 µM [rising, single point].

For `CCCN1CCN(C(=O)CCc2nnc3ccc(N4CCN(c5cccc(OC)c5)CC4)nn23)CC1`, the cell number change is 0.288%. The AC50 under setting [2] was 8.2 µM [falling, partial curve].

As for `C=CCn1c(SCc2csc(C)n2)nc2scc(-c3ccc(C)o3)c2c1=O`, the cell number change is -52.9%. For the same molecule, the half-maximal activity concentration (AC50) under setting [1] is 32.6 µM [falling, partial curve].

Regarding `COc1cc([N+](=O)[O-])ccc1NC(=O)CSc1nccn1C`, the half-maximal activity concentration (AC50) under setting [1] is 0.00517 µM [rising, full curve, poor fit].

As for `CC(=O)Nc1ccc(NC(=O)CSc2nnc(NC(=O)C3CC(=O)N(c4ccc(F)cc4)C3)s2)cc1` (stereo not drawn), the cell number change was -28.9%.

As to `COc1ccc(C(=O)Oc2ccc3ccc(=O)oc3c2)cc1OC`, the cell number change came to 19.8%. Under setting [2], the AC50 is 0.082 µM [rising, full curve, poor fit].

`CC(CC(=O)Nc1ccc2c(c1)OCCO2)c1ccccc1` (stereo not drawn): the AC50 under setting [2] is 0.651 µM [falling, single point].

With `CC(=O)N1CCc2cc(S(=O)(=O)N3CCCCC3C)ccc21` (stereo not drawn), the cell number change was -14.2%. For the same molecule, the half-maximal activity concentration (AC50) under setting [2] was 1.84 µM [falling, partial curve].

On to `Cc1cccc(NC(=S)N2CCC(NC(=O)c3ccco3)CC2)c1`, for which the cell number change is -8.12%. For the same molecule, the AC50 under setting [2] is 29.1 µM [rising, single point].

Turning to `COc1cccc(N=Cc2c[nH][nH]c2=O)c1`, the cell number change came to 44%. Also, under setting [1], the half-maximal activity concentration (AC50) is 3.66 µM [rising, partial curve]. Under setting [2], the half-maximal activity concentration (AC50) is 25.9 µM [rising, single point].

With `CCCn1c(SCC(=O)NC(C)C23CC4CC(CC(C4)C2)C3)n[nH]c1=O` (stereo not drawn), the cell number change was -32.4%. In addition, the AC50 under setting [1] is 16.4 µM [falling, single point]. Also, the AC50 under setting [2] is 29.1 µM [falling, single point].

For `CCOC(=O)N1CCN(Cc2nc3c(c(=O)n(C)c(=O)n3C)n2CCCc2ccccc2)CC1`, the cell number change was found to be 1.12%. Further, the AC50 under setting [2] is 0.651 µM [rising, single point].

With `Brc1ccc(OCCOCCN2CCOCC2)cc1`, the cell number change was 16.7%. Under setting [2], the AC50 is 29.1 µM [falling, single point].

Take `COc1cc(/C=C2/C(=O)CNC2=O)ccc1O`: the cell number change is -40.9%. Besides, under setting [1], the AC50 is 0.82 µM [falling, full curve]. The concentration at half-maximal activity (AC50) under setting [2] was 0.92 µM [falling, full curve].

As to `Cn1cnnc1SCC(=O)c1ccc(O)c(O)c1`, the cell number change was -17.8%. Further, the AC50 under setting [1] was 4.11 µM [falling, single point]. For the same molecule, under setting [2], the half-maximal activity concentration (AC50) was 1.64 µM [falling, single point].

As to `COc1ccc(-c2[nH]ncc2C=O)cc1`, the cell number change is -1.63%. For the same molecule, the half-maximal activity concentration (AC50) under setting [2] was 9.2 µM [rising, partial curve].

With `O=C(CSc1nnc(SCc2ccc(F)cc2)s1)Nc1ccc(C(=O)O)cc1`, the AC50 under setting [2] was 14.6 µM [rising, partial curve].

Take `CCc1c(C)[nH]c(C(=O)OCc2ccccc2)c1C`: the cell number change was -31.9%. Also, the concentration at half-maximal activity (AC50) under setting [1] is 29.1 µM [falling, single point]. The half-maximal activity concentration (AC50) under setting [2] was 32.6 µM [falling, single point].

Take `COc1ccc(C)cc1NC(=O)CO/N=C(\N)CC(=O)Nc1ccccc1OC`: the cell number change was determined as 12.8%. The half-maximal activity concentration (AC50) under setting [2] was 0.00461 µM [rising, full curve, poor fit].

As to `Cc1ccc(-c2nc3cnccn3c2Nc2ccc3c(c2)OCO3)cc1`, the concentration at half-maximal activity (AC50) under setting [2] is 0.58 µM [rising, partial curve, poor fit].

Regarding `N/C(CN1CCCCC1)=N\S(=O)(=O)c1cc(Cl)cc(Cl)c1`, the cell number change stood at 7%. The AC50 under setting [1] is 6.51 µM [falling, single point]. For the same molecule, the half-maximal activity concentration (AC50) under setting [2] was 6.51 µM [falling, single point].

As for `COc1ccc(/C=C/C(=O)NCCCN2CCCCCC2)cc1`, the cell number change was 37.9%. Moreover, the half-maximal activity concentration (AC50) under setting [1] was 11.6 µM [rising, partial curve]. The AC50 under setting [2] is 29.1 µM [rising, single point].

In the case of `CC(=O)c1ccc(OC(=O)C2CC(=O)N(c3cccc(C)c3)C2)cc1` (stereo not drawn), the cell number change is -18.4%. For the same molecule, the AC50 under setting [1] is 1.16 µM [falling, full curve, poor fit]. Further, the half-maximal activity concentration (AC50) under setting [2] was 3.26 µM [falling, full curve].

In the case of `COc1ccc(C2NC(=O)CCC2[N+](=O)[O-])cc1OC` (stereo not drawn), the cell number change was -4.99%. Further, under setting [2], the concentration at half-maximal activity (AC50) is 0.103 µM [rising, full curve, poor fit].

As for `O=C(O)c1cc(S(=O)(=O)N2CCOCC2)ccc1N1CCCCC1`, the cell number change is -103%.

Consider `COc1ccc(CNCCNC(=O)c2cccs2)c(OC)c1OC`, for which the cell number change was determined as 11.2%. The concentration at half-maximal activity (AC50) under setting [2] is 32.6 µM [rising, single point].

Regarding `Cc1ccc(-n2nc3c(=O)n(CC(=O)NCCC4=CCCCC4)nc(C)c3c2C)cc1`, the cell number change was -10.2%. Besides, the half-maximal activity concentration (AC50) under setting [2] is 1.03 µM [rising, full curve].

On to `c1ccc2c(c1)OCC(c1nnc3sc(-c4ccc5c(c4)OCO5)nn13)O2` (stereo not drawn), for which the cell number change amounted to 2.97%. Besides, under setting [2], the AC50 was 4.11 µM [rising, full curve, poor fit].

As to `CCOC(=O)c1c(C)oc2c1C(=O)c1ccccc1C2=O`, the cell number change was -38.1%. Further, the AC50 under setting [1] is 23.1 µM [falling, single point]. For the same molecule, the AC50 under setting [2] was 23.1 µM [falling, single point].

As to `CC(=O)Nc1ccc(N=Cc2ccc(OCc3ccccc3)cc2)cc1`, the cell number change was 9.91%. The AC50 under setting [2] is 0.517 µM [rising, full curve, poor fit].

Regarding `CC(C)c1ccc(N(CC(=O)O)S(=O)(=O)c2cccnc2)cc1`, the cell number change worked out at 0.184%. Under setting [2], the AC50 is 6.51 µM [rising, single point].

In the case of `O=S(=O)(Nc1cccc2[nH]ncc12)c1cccs1`, the cell number change was determined as 11.8%. Also, the AC50 under setting [2] was 0.00461 µM [rising, full curve, poor fit].

Consider `O=C(Nc1ccc(F)cc1)N1CCN(c2ncccn2)CC1`, for which the cell number change was found to be 18.7%.

As for `CC(C)(C(N)=O)N1CCN(c2ncc(C(F)(F)F)cc2Cl)CC1`, the cell number change came to 1.01%. For the same molecule, the AC50 under setting [2] is 2.31 µM [falling, partial curve].

For `COC(=O)c1ccc(Oc2cc(C)nc(NCc3ccccc3)n2)cc1`, the cell number change is 7.14%. Moreover, the AC50 under setting [2] is 0.58 µM [falling, single point].

Turning to `Cc1ccc(-n2cccc2/C=C2\C(=N)N3N=C(c4ccco4)SC3=NC2=O)cc1`, the cell number change was -2.62%.

As to `COc1ccc(OC)c(C2C(C(C)=O)=C(O)C(=O)N2CCC(=O)O)c1` (stereo not drawn), the cell number change is -21.3%. For the same molecule, the AC50 under setting [2] is 29.1 µM [falling, single point].

As to `CCC(C)C(NS(=O)(=O)c1ccc(C)cc1)C(=O)Oc1ccc2c3c(c(=O)oc2c1)CCC3` (stereo not drawn), the cell number change is -2.38%. The AC50 under setting [2] is 0.13 µM [rising, full curve, poor fit].

For `Cc1nc2ccccn2c1C(=O)NC1CCCc2ccccc21` (stereo not drawn), the cell number change is -33.7%. For the same molecule, the AC50 under setting [1] was 23.1 µM [falling, single point]. Besides, the AC50 under setting [2] was 16.4 µM [falling, partial curve, poor fit].

With `COc1ccc(CNC(=O)C2CCCN(c3nc4ccccc4o3)C2)c(OC)c1` (stereo not drawn), the cell number change amounted to 23.5%. The half-maximal activity concentration (AC50) under setting [2] was 2.06 µM [rising, partial curve].

For `O=C(CNC(=O)c1ccc(Cl)c([N+](=O)[O-])c1)OC1CCCCC1=O` (stereo not drawn), the cell number change came out at 10.7%. Besides, the AC50 under setting [2] was 23.1 µM [falling, partial curve].

For the molecule `CS(=O)(=O)c1ccc2nc(NC(=O)Nc3ccc(Cl)c(Cl)c3)sc2c1`, the cell number change was -13.5%. Under setting [1], the half-maximal activity concentration (AC50) was 6.51 µM [falling, single point]. Besides, the concentration at half-maximal activity (AC50) under setting [2] was 5.17 µM [falling, full curve].

For the molecule `Cc1ccc2nc(NS(=O)(=O)c3cn(C)nc3C)sc2c1`, the cell number change turned out to be 18.9%.

In the case of `O=C(CSCc1cnn(-c2ccccc2)c1-n1cccc1)NCc1ccccn1`, the cell number change stood at 35.2%. For the same molecule, the half-maximal activity concentration (AC50) under setting [1] is 29.1 µM [rising, single point]. Moreover, under setting [2], the AC50 is 29.1 µM [rising, single point].

As to `CN(CC(=O)Nc1cccc(F)c1)C(=O)c1ccc(N2CCCCC2)c([N+](=O)[O-])c1`, the cell number change amounted to 19.7%. For the same molecule, under setting [2], the half-maximal activity concentration (AC50) was 18.4 µM [rising, single point].
